PMC10620080, “The sex-specific factor SOA controls dosage compensation in Anopheles mosquitoes”
For some assays here: Negatives hold for the conditions tested. At least one verdict was read from the data and is not stated in words by the source. Where a protein sequence is shown, tags need not be part of it. For some assays here: Construct, isoform or probe ends are uncertain for at least one entry.

Assays:
[1] = biological target: T1, MBP-SOA(1195-1265), ZnF domain (Anopheles gambiae) (UniProt Q7Q6N8); assay: fluorescence polarization; settings: FP: 10 mM Na-HEPES pH 7.4, 150 mM NaCl, 1 mM TCEP, 0.1 g/l BSA, 5% glycerol, 0.05% Triton X-100, 5 nM DNA, 20 C; recombinant protein; residues 1195-1265; protein details: N-terminal His6-MBP; label: Cy5 on one strand
T1 sequence (looked up): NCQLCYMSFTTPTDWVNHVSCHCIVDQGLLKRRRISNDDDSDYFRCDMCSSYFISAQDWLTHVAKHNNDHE

[2] = biological target: T2, MBP-SOA(1-331), myb+BTB (Anopheles gambiae) (UniProt Q7Q6N8); assay: fluorescence polarization; settings: FP: 10 mM Na-HEPES pH 7.4, 150 mM NaCl, 1 mM TCEP, 0.1 g/l BSA, 5% glycerol, 0.05% Triton X-100, 5 nM DNA, 20 C; recombinant protein; residues 1-331; protein details: N-terminal His6-MBP; label: Cy5 on one strand
T2 sequence (looked up): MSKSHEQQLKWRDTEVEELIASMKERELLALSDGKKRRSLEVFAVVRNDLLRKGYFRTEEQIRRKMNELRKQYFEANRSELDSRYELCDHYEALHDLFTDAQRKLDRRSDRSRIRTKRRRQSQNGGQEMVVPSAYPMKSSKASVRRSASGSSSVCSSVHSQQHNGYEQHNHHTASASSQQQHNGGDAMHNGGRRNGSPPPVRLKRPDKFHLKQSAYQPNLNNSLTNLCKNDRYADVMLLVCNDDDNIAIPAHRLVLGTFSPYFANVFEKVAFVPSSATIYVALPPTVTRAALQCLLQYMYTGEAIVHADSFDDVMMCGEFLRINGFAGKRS

Sequence	binding result [1]	binding result [2]
CACACACACACACACACACA (double strand) [CA10 dsDNA 20mer]	no binding	
GTCCACACACACACACACGA (double strand) [CA7 dsDNA 20mer]	no binding	binds
GTCTCGTAATCTTCTTAGAG (double strand) [random 1 dsDNA 20mer]	no binding	binds
